Source: publication PMC8448743

Target: Flag-CHIP deletion construct lacking the CC domain (human (cloned from SHSY5Y cDNA))
Test: co-IP; HEK293T co-transfected with an HA-tagged and a Flag-tagged protein; whole cell lysate in low-salt lysis buffer (50 mM Hepes pH 7.5, 150 mM NaCl, 1% Triton X-100) on anti-Flag agarose overnight at 4 °C, six washes, immunoblot

- binding: no binding
B1: HA-TAK1 (protein, UniProt O43318 1-606)
chain: MSTASAASSSSSSSAGEMIEAPSQVLNFEEIDYKEIEVEEVVGRGAFGVVCKAKWRAKDVAIKQIESESERKAFIVELRQLSRVNHPNIVKLYGACLNPVCLVMEYAEGGSLYNVLHGAEPLPYYTAAHAMSWCLQCSQGVAYLHSMQPKALIHRDLKPPNLLLVAGGTVLKICDFGTACDIQTHMTNNKGSAAWMAPEVFEGSNYSEKCDVFSWGIILWEVITRRKPFDEIGGPAFRIMWAVHNGTRPPLIKNLPKPIESLMTRCWSKDPSQRPSMEEIVKIMTHLMRYFPGADEPLQYPCQYSDEGQSNSATSTGSFMDIASTNTSNKSDTNMEQVPATNDTIKRLESKLLKNQAKQQSESGRLSLGASRGSSVESLPPTSEGKRMSADMSEIEARIAATTAYSKPKRGHRKTASFGNILDVPEIVISGNGQPRRRSIQDLTVTGTEPGQVSSRSSSPSVRMITTSGPTSEKPTRSHPWTPDDSTDTNGSDNSIPMAYLTLDHQLQPLAPCPNSKESMAVFEQHCKMAQEYMKVQTEIALLLQRKQELVAELDQDEKDQQNTSRLVQEHKKLLDENKSLSTYYQQCKKQLEVIRSQQQKRQGTS

These are yes or no findings as the source states them, for the method shown. In cells and extracts the contact can be indirect. Sequences can lack the tags named with a protein.
